PubChem BioAssay AID1224826 | NIAID, 2016
This is a random part of about 17,000 deposited reagents. About 1,110 of all reagents (6.6%) count as active. 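Active means lowered or raised reporter signal; replicate intensities are raw and not normalised per plate.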 Not all columns of the deposit are shown.

Assay: 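Knock-downs that raise or lower Tnf reporter signal after endotoxin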 (primary screen)
Cells: RAW264.7 G9 macrophages from mouse bearing reporters for p65 (GFP) and the Tnf promoter (mCherry)
Reagent: siRNA pool against mouse genes, 100 nM
Duration: 16 h of LPS stimulation, after 2 days of siRNA transfection
Challenge: bacterial lipopolysaccharide (Salmonella minnesota R595), 10 ng/ml
Read-out: 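Nuclear mCherry signal of the Tnf promoter reporter measured by imaging after background removal, scaled to each plate median and turned into robust z-scores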
Reading the numbers: Tnf reporter robust z-score: higher = stronger Tnf promoter reporter signal after LPS
Call rule: 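a well counts as active at a score of -1.3 or below (Tlr4 knock-down control median) or above 3 (raised signal); controls and wells holding fewer than 50 cells are excluded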
Meaning of the calls: active = Tnf reporter clearly lowered or raised; inactive = no clear change in Tnf reporter

D630028G08Rik
- Tnf reporter robust z-score: -2.18
- fewer than 50 cells in well: enough cells in well
- Outcome: active

Smc6
- fewer than 50 cells in well: fewer than 50 cells per well; well left out of calls
- Outcome: inactive

Cdnf
- Tnf reporter robust z-score: -0.95
- fewer than 50 cells in well: enough cells in well
- Outcome: inactive

Cldn10
- Tnf reporter robust z-score: 0.08
- fewer than 50 cells in well: enough cells in well
- Outcome: inactive

Pramel1
- Tnf reporter robust z-score: -0.05
- fewer than 50 cells in well: enough cells in well
- Outcome: inactive

Psd4
- Tnf reporter robust z-score: -0.23
- fewer than 50 cells in well: enough cells in well
- Outcome: inactive

Sgms1
- Tnf reporter robust z-score: 0.65
- fewer than 50 cells in well: enough cells in well
- Outcome: inactive

Kcnj4
- Tnf reporter robust z-score: 2.11
- fewer than 50 cells in well: enough cells in well
- Outcome: inactive

Speer3
- Tnf reporter robust z-score: 1.54
- fewer than 50 cells in well: enough cells in well
- Outcome: inactive

Snrpd1
- fewer than 50 cells in well: fewer than 50 cells per well; well left out of calls
- Outcome: inactive

Zc3h3
- Tnf reporter robust z-score: 0.44
- fewer than 50 cells in well: enough cells in well
- Outcome: inactive

Aspdh
- Tnf reporter robust z-score: -0.62
- fewer than 50 cells in well: enough cells in well
- Outcome: inactive

Tnxb
- Tnf reporter robust z-score: -0.04
- fewer than 50 cells in well: enough cells in well
- Outcome: inactive

S1pr4
- Tnf reporter robust z-score: -0.33
- fewer than 50 cells in well: enough cells in well
- Outcome: inactive

Man2c1
- Tnf reporter robust z-score: 0.21
- fewer than 50 cells in well: enough cells in well
- Outcome: inactive

Cep135
- Tnf reporter robust z-score: 0.94
- fewer than 50 cells in well: enough cells in well
- Outcome: inactive

Klra16
- Tnf reporter robust z-score: 0.63
- fewer than 50 cells in well: enough cells in well
- Outcome: inactive

Katna1
- Tnf reporter robust z-score: -0.1
- fewer than 50 cells in well: enough cells in well
- Outcome: inactive

Ust
- Tnf reporter robust z-score: -1.52
- fewer than 50 cells in well: enough cells in well
- Outcome: active

Adnp
- Tnf reporter robust z-score: -0.54
- fewer than 50 cells in well: enough cells in well
- Outcome: inactive

Utrn
- Tnf reporter robust z-score: 0.43
- fewer than 50 cells in well: enough cells in well
- Outcome: inactive

Records above whose target name starts with P or p (2):
Pramel1
- Tnf reporter robust z-score: -0.05
- fewer than 50 cells in well: enough cells in well
- Outcome: inactive

Psd4
- Tnf reporter robust z-score: -0.23
- fewer than 50 cells in well: enough cells in well
- Outcome: inactive
